Results published in article PMC5129993, “Everolimus induces Met inactivation by disrupting the FKBP12/Met complex” (Oncotarget, 2016).
No constants are given. Whether binding was seen depends on the method and setting. Binding seen in cells or lysates may run through a third protein. Some entries that bind do so weakly or less than the wild type.

By UniProt entry, the sequences of proteins in these tests, tags left out. Residues count along the entry.
UniProt P08581, residues 25-1390: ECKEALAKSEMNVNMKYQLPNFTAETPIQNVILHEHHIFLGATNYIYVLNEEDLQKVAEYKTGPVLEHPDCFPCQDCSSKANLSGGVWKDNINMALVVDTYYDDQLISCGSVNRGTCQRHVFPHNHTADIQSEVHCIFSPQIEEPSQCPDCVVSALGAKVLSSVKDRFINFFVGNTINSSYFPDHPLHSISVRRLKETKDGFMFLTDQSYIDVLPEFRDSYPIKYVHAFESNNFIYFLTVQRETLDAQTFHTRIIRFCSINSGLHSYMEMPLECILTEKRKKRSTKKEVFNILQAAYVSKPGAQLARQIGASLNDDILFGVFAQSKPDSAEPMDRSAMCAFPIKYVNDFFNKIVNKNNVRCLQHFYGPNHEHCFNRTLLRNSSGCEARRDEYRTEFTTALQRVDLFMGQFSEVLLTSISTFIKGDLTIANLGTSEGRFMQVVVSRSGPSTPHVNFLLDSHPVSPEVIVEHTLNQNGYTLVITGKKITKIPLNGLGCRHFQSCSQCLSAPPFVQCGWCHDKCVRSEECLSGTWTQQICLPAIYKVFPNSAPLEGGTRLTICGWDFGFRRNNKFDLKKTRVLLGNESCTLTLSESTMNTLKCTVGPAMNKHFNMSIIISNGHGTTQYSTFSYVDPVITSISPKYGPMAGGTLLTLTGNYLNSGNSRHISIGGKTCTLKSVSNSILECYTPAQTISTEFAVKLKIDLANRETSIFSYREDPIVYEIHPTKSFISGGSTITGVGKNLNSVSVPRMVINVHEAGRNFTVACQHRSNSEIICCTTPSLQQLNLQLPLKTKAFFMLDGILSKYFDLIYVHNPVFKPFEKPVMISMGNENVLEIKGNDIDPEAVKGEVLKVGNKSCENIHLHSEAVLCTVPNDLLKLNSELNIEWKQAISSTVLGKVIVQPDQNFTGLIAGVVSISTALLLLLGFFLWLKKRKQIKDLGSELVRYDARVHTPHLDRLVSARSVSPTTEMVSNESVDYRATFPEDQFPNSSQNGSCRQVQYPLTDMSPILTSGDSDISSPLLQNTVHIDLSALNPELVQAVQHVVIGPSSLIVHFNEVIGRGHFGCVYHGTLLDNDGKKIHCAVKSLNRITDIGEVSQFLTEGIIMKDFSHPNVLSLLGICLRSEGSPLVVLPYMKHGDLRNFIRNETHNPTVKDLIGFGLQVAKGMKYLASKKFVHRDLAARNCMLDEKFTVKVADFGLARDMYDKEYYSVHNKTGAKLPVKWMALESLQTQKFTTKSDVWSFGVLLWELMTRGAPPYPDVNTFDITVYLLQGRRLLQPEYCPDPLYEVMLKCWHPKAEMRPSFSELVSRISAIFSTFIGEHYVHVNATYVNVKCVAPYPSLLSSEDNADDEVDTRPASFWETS

Target: Met receptor tyrosine kinase (receptor for hepatocyte growth factor) (human (endogenous in 786-O, 786-O EveR and HCT116)) (UniProt P08581)
Test: co-IP; total cell lysates of 786-O, 786-O EveR and HCT116 cells, in complete medium or treated 24 h with everolimus (0.5 uM); immunoprecipitated with anti-Met antibody, blotted with anti-Met and anti-FKBP12; normal IgG as negative control

In the case of “FK506/rapamycin binding protein 12 (FKBP12) (from UniProt P62942 1-108)”, the binding is reported as “binds”.
